Measurements taken from ChEMBL document CHEMBL2331442, “Synthesis and structure-activity relationships of N-methyl-5,6,7-trimethoxylindoles as novel antimitotic and vascular disrupting agents” (J Med Chem, 2013).

Tested on: HUVEC
Assay: Selectivity ratio of IC50 for quesicent HUVECs to IC50 for activated HUVECs
Type: functional, Homo sapiens

With `COc1cc2c(c(OC)c1OC)-c1ccc(OC)c(=O)cc1[C@@H](NC(C)=O)CC2` [COLCHICINE] the “Ratio IC50” value was 0.85.
